Reference: PMC6834594, “Structure and regulation of ZCCHC4 in m^6A-methylation of 28S rRNA” (Nature Communications, 2019)
For some of these results: Weaker means in comparison with the reference protein, sequence or condition of that experiment. Where a protein sequence is shown, tags need not be part of it. For some of these results: Construct, isoform or probe ends are uncertain for at least one entry. For some of these results: At least one verdict rests on a figure or table, not on a statement of the authors.

How the values were obtained:
Assay in all cases: EMSA
ZCCHC4 dCCHC (human) = molecular target: T1, ZCCHC4 dCCHC (human) (UniProt Q9H5U6); details: EMSA: 20 mM Tris-HCl pH 7.5, 100 mM NaCl, 5% glycerol, 1 mM DTT, 4 C, 1 h; 0.3 uM RNA with 0-1.2 uM protein unless noted; 6% TBE native gel; recombinant …; residues 24-368; protein details: His6-SUMO removed by ULP1; label: none (SYBR Gold stain)
T1 sequence (looked up): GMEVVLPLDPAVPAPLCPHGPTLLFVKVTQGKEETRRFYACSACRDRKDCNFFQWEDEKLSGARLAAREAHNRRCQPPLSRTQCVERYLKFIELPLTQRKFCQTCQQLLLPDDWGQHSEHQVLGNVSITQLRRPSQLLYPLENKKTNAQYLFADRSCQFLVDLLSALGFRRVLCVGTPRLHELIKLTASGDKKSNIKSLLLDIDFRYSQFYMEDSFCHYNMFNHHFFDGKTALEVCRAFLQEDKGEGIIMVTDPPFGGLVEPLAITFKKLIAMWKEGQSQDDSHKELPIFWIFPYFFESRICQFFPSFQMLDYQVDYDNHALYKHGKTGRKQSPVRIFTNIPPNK

ZCCHC4 dGRF-C2H2 (human) = molecular target: T2, ZCCHC4 dGRF-C2H2 (human) (UniProt Q9H5U6); details: EMSA: 20 mM Tris-HCl pH 7.5, 100 mM NaCl, 5% glycerol, 1 mM DTT, 4 C, 1 h; 0.3 uM RNA with 0-1.2 uM protein unless noted; 6% TBE native gel; recombinant …; residues 159-464; protein details: His6-SUMO removed by ULP1; label: none (SYBR Gold stain)
T2 sequence (looked up): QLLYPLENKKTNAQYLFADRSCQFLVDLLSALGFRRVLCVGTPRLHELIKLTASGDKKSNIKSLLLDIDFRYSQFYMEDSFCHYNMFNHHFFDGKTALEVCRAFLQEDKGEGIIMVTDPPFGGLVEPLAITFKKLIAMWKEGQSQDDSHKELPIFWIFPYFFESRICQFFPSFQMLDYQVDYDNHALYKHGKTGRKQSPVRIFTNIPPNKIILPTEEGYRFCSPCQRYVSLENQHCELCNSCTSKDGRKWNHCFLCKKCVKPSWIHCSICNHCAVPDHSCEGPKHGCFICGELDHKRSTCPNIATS

ZCCHC4 dGRF (human) = molecular target: T3, ZCCHC4 dGRF (human) (UniProt Q9H5U6); details: EMSA: 20 mM Tris-HCl pH 7.5, 100 mM NaCl, 5% glycerol, 1 mM DTT, 4 C, 1 h; 0.3 uM RNA with 0-1.2 uM protein unless noted; 6% TBE native gel; recombinant …; residues 100-464; protein details: His6-SUMO removed by ULP1; label: none (SYBR Gold stain)
T3 sequence (looked up): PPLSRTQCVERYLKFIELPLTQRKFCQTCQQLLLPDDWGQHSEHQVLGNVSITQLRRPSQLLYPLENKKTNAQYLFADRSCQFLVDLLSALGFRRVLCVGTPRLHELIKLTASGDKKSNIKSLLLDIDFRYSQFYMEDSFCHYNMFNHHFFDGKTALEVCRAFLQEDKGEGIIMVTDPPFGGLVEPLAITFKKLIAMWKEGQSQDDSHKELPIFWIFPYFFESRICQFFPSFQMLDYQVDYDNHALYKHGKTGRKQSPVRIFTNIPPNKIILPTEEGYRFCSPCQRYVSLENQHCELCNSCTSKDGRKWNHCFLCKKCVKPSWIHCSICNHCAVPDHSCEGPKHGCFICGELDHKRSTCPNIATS

ZCCHC4 24-513 WT (human) = molecular target: T4, ZCCHC4 24-513 WT (human) (UniProt Q9H5U6); details: EMSA: 20 mM Tris-HCl pH 7.5, 100 mM NaCl, 5% glycerol, 1 mM DTT, 4 C, 1 h; 0.3 uM RNA with 0-1.2 uM protein unless noted; 6% TBE native gel; recombinant …; residues 24-513; protein details: His6-SUMO removed by ULP1; label: none (SYBR Gold stain)
T4 sequence (looked up): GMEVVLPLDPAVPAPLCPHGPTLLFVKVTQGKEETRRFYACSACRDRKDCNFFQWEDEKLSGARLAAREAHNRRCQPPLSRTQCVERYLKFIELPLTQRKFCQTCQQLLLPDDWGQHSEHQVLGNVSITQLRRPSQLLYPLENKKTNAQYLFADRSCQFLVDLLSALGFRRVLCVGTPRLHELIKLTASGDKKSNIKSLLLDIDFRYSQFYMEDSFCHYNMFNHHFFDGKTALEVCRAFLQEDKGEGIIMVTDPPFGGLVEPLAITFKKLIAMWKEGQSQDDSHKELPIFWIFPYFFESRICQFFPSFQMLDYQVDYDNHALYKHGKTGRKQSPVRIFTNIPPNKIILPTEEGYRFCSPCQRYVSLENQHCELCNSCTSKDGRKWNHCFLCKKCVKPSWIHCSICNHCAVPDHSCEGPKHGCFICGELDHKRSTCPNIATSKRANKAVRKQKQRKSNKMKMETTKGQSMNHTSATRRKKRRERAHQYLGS

CGGUACACCUGUCAAACGGUAACGCAGGUG [30-mer 28S rRNA]
binding result (ZCCHC4 dCCHC (human)): binds more weakly
binding result (ZCCHC4 dGRF-C2H2 (human)): binds more weakly
binding result (ZCCHC4 dGRF (human)): binds more weakly
binding result (ZCCHC4 24-513 WT (human)): binds
